Source: ChEMBL document CHEMBL3988442, “University of Dundee, Small-Polar-MMV Screening Library” (2021).

Amino acid sequences for entries named in this document (tags omitted).
UniProt E9BF75, entry or part of it: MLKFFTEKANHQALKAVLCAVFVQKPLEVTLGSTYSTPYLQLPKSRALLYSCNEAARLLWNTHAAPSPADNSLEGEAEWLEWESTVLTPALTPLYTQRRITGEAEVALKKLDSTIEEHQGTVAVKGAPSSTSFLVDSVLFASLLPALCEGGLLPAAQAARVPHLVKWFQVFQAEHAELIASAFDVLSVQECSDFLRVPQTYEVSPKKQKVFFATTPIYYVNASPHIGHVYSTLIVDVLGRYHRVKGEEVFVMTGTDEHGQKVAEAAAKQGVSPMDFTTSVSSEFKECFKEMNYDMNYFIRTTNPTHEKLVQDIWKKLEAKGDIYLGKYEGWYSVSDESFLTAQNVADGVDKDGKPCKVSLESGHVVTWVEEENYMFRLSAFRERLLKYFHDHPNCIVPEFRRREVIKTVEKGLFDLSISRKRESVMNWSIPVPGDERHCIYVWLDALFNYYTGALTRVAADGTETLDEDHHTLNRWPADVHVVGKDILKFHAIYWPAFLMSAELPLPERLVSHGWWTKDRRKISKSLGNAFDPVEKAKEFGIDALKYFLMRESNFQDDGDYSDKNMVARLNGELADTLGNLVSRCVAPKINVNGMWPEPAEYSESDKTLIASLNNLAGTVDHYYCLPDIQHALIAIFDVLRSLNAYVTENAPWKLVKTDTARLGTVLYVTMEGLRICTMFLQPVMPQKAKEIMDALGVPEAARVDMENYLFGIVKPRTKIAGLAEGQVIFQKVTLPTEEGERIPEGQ

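Primary screen of methionyl-tRNA synthetase; the read-out is not stated. Target: Methionyl-tRNA synthetase (putative), Leishmania donovani (UniProt E9BF75). The test concentration is not given. The values are filed as inhibition. About 68,000 compounds were tested under these conditions; 0.035% (about 24) showed 50% or more at least once.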

Results are percentages, as filed. How 0% and 100% were set is not recorded. Most values in the screen are low, and negative values occur. The compounds are a random part of those screened.

{"structure": "Cc1cc(N(C)C)nc(N2CCN(Cc3nccn3C)CC2)n1", "inhibition": 16.1}
{"structure": "CSCC(C)(O)CNC(=O)Nc1cc(C)cc(C)c1", "stereo": "stereo not drawn", "inhibition": 10.07}
{"structure": "Cc1ccc(NC2CCN(C(=O)CC3CCCO3)CC2)nn1", "stereo": "stereo not drawn", "inhibition": 5.229}
{"structure": "Clc1ccccc1CN1CCc2nc(C3CCNCC3)ncc2C1", "inhibition": 25.89}
{"structure": "CC(C)n1cc(C(=O)NC2CN3CCC2CC3)c2ccccc21", "stereo": "stereo not drawn", "inhibition": -0.303}
{"structure": "O=C(c1ccncc1F)N1CCc2ncnc(N3CCOCC3)c2CC1", "inhibition": 15.56}
{"structure": "CN1[C@H](CN2CCCC2)C[C@@H]2CN(C(=O)c3ccsc3)CC[C@@H]21", "inhibition": -0.3205}
{"structure": "Cc1cnc(N2CCCC3(CCCN(C)C3)C2)nc1", "stereo": "stereo not drawn", "inhibition": 13.5}
{"structure": "CCc1n[nH]c(C2CN(CCc3ccncc3)CCO2)n1", "stereo": "stereo not drawn", "inhibition": 14.58}
{"structure": "COc1ccc(Cc2ncc3c(n2)CN(C(=O)CO)C3)cc1", "inhibition": 1.6}
{"structure": "CC(C1CCN(Cc2cnn(C)c2C2CC2)CC1)N1CCCC1", "stereo": "stereo not drawn", "inhibition": 14.54}
{"structure": "COC(=O)N1CCCC(C(=O)Nc2ccccc2CN2CCCC2)C1", "stereo": "stereo not drawn", "inhibition": 11.68}
{"structure": "Cc1ccc(OCC(=O)N(C)Cc2cccc(F)c2)cn1", "inhibition": 15.36}
{"structure": "Cc1nc(C)c(C(=O)N2CCc3nnc(C4CCCCN4C)n3CC2)s1", "stereo": "stereo not drawn", "inhibition": 14.78}
{"structure": "CS(=O)(=O)N1CCO[C@@H]2CN(C(=O)N3CCCC3)CC[C@@H]2C1", "inhibition": 16.1}
{"structure": "Cc1cc(C(=O)N(C)Cc2cccs2)nc(N2CCCC2)n1", "inhibition": 24.87}
{"structure": "O=C(c1ccc(O)nc1)N1CCN(C(=O)c2ccc(F)cc2F)CC1", "inhibition": 17.96}
{"structure": "CCNC(=O)CCC(=O)NC1(c2cccc(C(F)(F)F)c2)CCC1", "inhibition": 6.97}
{"structure": "O=c1[nH]c(CCN2CCCC2Cn2cccn2)nc2ccccc12", "stereo": "stereo not drawn", "inhibition": 9.036}
{"structure": "c1cc(CN2CCC3(CC2)COC(COCC2CC2)C3)cs1", "stereo": "stereo not drawn", "inhibition": 14.57}
{"structure": "CS(=O)(=O)N1CCC2(CCN(Cc3nccs3)CC2)CC1", "inhibition": -5.263}
{"structure": "COc1ccc(COCC(=O)N2CCCC(n3cncn3)C2)cc1", "stereo": "stereo not drawn", "inhibition": 9.509}
{"structure": "COc1cc(N2CCC3(CC2)CN(C)C(=O)CO3)ncn1", "inhibition": 1.099}
{"structure": "CCn1cnnc1CNC(=O)N1CCCC1", "inhibition": 0.2865}
{"structure": "O=C(NCCn1ccnc1)c1ccn(-c2ccccc2)n1", "inhibition": 14.86}
{"structure": "Cn1c(SCC2OCCc3ccccc32)n[nH]c1=O", "stereo": "stereo not drawn", "inhibition": 13.69}
{"structure": "NC(=O)Cn1cc(NC(=O)N2CCN(c3ccccc3)CC2)cn1", "inhibition": 21.05}
{"structure": "Cc1nsc(N2CCN(CC(=O)NCc3ccc(F)cc3)CC2)n1", "inhibition": 6.265}
{"structure": "CN(C)S(=O)(=O)c1cccc(CNc2cc(CO)ccc2Cl)c1", "inhibition": 10.09}
{"structure": "CCc1csc(C2CCCN(C(=O)c3ccc(=O)n(CC)n3)C2)n1", "stereo": "stereo not drawn", "inhibition": 16.81}

The first 2 entries again:

Cc1cc(N(C)C)nc(N2CCN(Cc3nccn3C)CC2)n1 read 16.1%.
CSCC(C)(O)CNC(=O)Nc1cc(C)cc(C)c1 (stereo not drawn) read 10.07%.